# Test results taken from patent US20250066417A9 (ENLITISA (SHANGHAI) PHARMACEUTICAL CO., LTD., priority 2021, published 2025).
# Where no end group is shown, it is not given here. [ ]: non-standard residue; d: D form. Dopa = N[C@@H](Cc1ccc(O)c(O)c1)C(=O)O; Hyp = O=C(O)[C@@H]1C[C@@H](O)CN1
# Test: general procedure: Fmoc solid-phase peptide synthesis; Fmoc-Lys(Fmoc)-Wang resin; Fmoc-Lys(Boc)-Wang resin (GL Biochem)
# Details: whole synthesis, HPLC, UV at 220 nm (Shimadzu LCMS-8050 / LC-20, ZORBAX Eclipse SB-C18), acetate
Substance,crude HPLC purity [%],final HPLC purity [%]
SKPSY[Hyp]T[Dopa][Hyp]K,77.018,
AKPSY[Hyp]TY[Hyp]K,,98
SKPSY[Hyp][Hyp]TYK,75.338,
KPSY[Hyp][Hyp]TY[Hyp]K,73.958,
AKPSY[Hyp]T[Dopa][Hyp]K,75.674,
SKPSY[Hyp][Hyp]T[Dopa]K,76.933,
KPSY[Hyp]TY[Hyp]K,79.035,
AKPSY[Hyp][Hyp]TY[Hyp]K,72.868,
KPSY[Hyp]T[Dopa][Hyp]K,78.932,
AKPSY[Hyp][Hyp]T[Dopa][Hyp]K,73.943,
SKPSY[Hyp]TY[Hyp]K,76.229,
KPSY[Hyp][Hyp]T[Dopa][Hyp]K,76.035,

# Same assay, conditions: whole synthesis, UV 220 nm, acetate
row,Substance,crude HPLC purity [%]
1,AKPSY[Hyp]TY[Hyp]K,79.363
